Laboratory results from paper PMC8384837.
Where a chain is given by its changes, count along the chain named. This is one part of the list. For some assays here: At the low end of the ranking the order means little.

Tests used:
Settings in all cases: yeast three-hybrid, YBZ-1, SC-Leu-His + 0.5 mM 3-AT, 4 days
[1] = molecular target: T1, PUM1 PUF domain R3-RMK C935R + R936M + Q939K (UniProt Q14671)
T1 sequence: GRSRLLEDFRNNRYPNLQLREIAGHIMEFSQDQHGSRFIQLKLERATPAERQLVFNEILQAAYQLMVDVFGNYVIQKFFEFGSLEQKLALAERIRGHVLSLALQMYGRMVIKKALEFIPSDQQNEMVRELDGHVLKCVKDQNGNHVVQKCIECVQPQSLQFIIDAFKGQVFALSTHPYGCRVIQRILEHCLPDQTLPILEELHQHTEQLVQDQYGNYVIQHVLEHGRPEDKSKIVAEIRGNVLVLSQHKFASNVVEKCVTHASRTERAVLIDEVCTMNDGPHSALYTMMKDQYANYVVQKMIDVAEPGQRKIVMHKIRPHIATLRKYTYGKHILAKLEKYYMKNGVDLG

[2] = molecular target: T2, PUM1 PUF domain R3-RMR C935R + R936M + Q939R (Homo sapiens) (UniProt Q14671)
T2 sequence: T1 sequence with K112R

[3] = molecular target: T3, PUM1 PUF domain R3-RMW C935R + R936M + Q939W (Homo sapiens) (UniProt Q14671)
T3 sequence: T1 sequence with K112W

[4] = molecular target: T4, PUM1 PUF domain R3-RPD C935R + R936P + Q939D (Homo sapiens) (UniProt Q14671)
T4 sequence: T1 sequence with M109P, K112D

[5] = molecular target: T5, PUM1 PUF domain R3-RQG C935R + R936Q + Q939G (UniProt Q14671)
T5 sequence: T1 sequence with M109Q, K112G

[6] = molecular target: T6, PUM1 PUF domain R3-RQL C935R + R936Q + Q939L (Homo sapiens) (UniProt Q14671)
T6 sequence: T1 sequence with M109Q, K112L

[7] = molecular target: T7, PUM1 PUF domain R3-RQV C935R + R936Q + Q939V (Homo sapiens) (UniProt Q14671)
T7 sequence: T1 sequence with M109Q, K112V

[8] = molecular target: T8, PUM1 PUF domain R3-RQW C935R + R936Q + Q939W (UniProt Q14671)
T8 sequence: T1 sequence with M109Q, K112W

[9] = molecular target: T9, PUM1 PUF domain R3-RRC C935R + Q939C (UniProt Q14671)
T9 sequence: T1 sequence with M109R, K112C

[10] = molecular target: T10, PUM1 PUF domain R3-RRE C935R + Q939E (Homo sapiens) (UniProt Q14671)
T10 sequence: T1 sequence with M109R, K112E

[11] = molecular target: T11, PUM1 PUF domain R3-RRG C935R + Q939G (Homo sapiens) (UniProt Q14671)
T11 sequence: T1 sequence with M109R, K112G

[12] = molecular target: T12, PUM1 PUF domain R3-RRL C935R + Q939L (UniProt Q14671)
T12 sequence: T1 sequence with M109R, K112L

[13] = molecular target: T13, PUM1 PUF domain R3-RRM C935R + Q939M (UniProt Q14671)
T13 sequence: T1 sequence with M109R, K112M

[14] = molecular target: T14, PUM1 PUF domain R3-RRT C935R + Q939T (UniProt Q14671)
T14 sequence: T1 sequence with M109R, K112T

[15] = molecular target: T15, PUM1 PUF domain R3-RSC C935R + R936S + Q939C (UniProt Q14671)
T15 sequence: T1 sequence with M109S, K112C

[16] = molecular target: T16, PUM1 PUF domain R3-RSD C935R + R936S + Q939D (UniProt Q14671)
T16 sequence: T1 sequence with M109S, K112D

[17] = molecular target: T17, PUM1 PUF domain R3-RSF C935R + R936S + Q939F (UniProt Q14671)
T17 sequence: T1 sequence with M109S, K112F

[18] = molecular target: T18, PUM1 PUF domain R3-RSG C935R + R936S + Q939G (Homo sapiens) (UniProt Q14671)
T18 sequence: T1 sequence with M109S, K112G

[19] = molecular target: T19, PUM1 PUF domain R3-RSH C935R + R936S + Q939H (Homo sapiens) (UniProt Q14671)
T19 sequence: T1 sequence with M109S, K112H

[20] = molecular target: T20, PUM1 PUF domain R3-RSP C935R + R936S + Q939P (Homo sapiens) (UniProt Q14671)
T20 sequence: T1 sequence with M109S, K112P

For “GGCUAGAACUAGUGGAUCCCCCGGCGCCCGGCGGCUCGAGCCCGGGUAAGUGUAAAUAGUCUGCAUGCCGCCGGGCGCCAUGCCUGCAGGUCGACUCUAGAAAACAUG”, the binding signal (log2 enrichment (interaction score)) [1] was less than -6.25, the binding signal (log2 enrichment (interaction score)) [2] was -2.34 and the binding signal (log2 enrichment (interaction score)) [3] was -2.04. It also gave a binding signal (log2 enrichment (interaction score)) [4] of -1.74, a binding signal (log2 enrichment (interaction score)) [5] of less than -7.21 and a binding signal (log2 enrichment (interaction score)) [6] of -0.95. It also gave a binding signal (log2 enrichment (interaction score)) [7] of -0.68, a binding signal (log2 enrichment (interaction score)) [8] of less than -7.65 and a binding signal (log2 enrichment (interaction score)) [9] of -2.34. It also gave a binding signal (log2 enrichment (interaction score)) [10] of -2.06, a binding signal (log2 enrichment (interaction score)) [11] of -1.42 and a binding signal (log2 enrichment (interaction score)) [12] of -2.29. For the same sequence, the binding signal (log2 enrichment (interaction score)) [13] was less than -6.89, the binding signal (log2 enrichment (interaction score)) [14] was -2.06 and the binding signal (log2 enrichment (interaction score)) [15] was -3.38. The binding signal (log2 enrichment (interaction score)) [16] was less than -8.33, the binding signal (log2 enrichment (interaction score)) [17] was less than -7.45 and the binding signal (log2 enrichment (interaction score)) [18] was -1.65. For the same sequence, the binding signal (log2 enrichment (interaction score)) [19] was -1.59 and the binding signal (log2 enrichment (interaction score)) [20] was -2.99.
